Measurements as given in the supplement of paper PMC10849652.
The list shows a part of the results.

By UniProt entry, the sequences of proteins in these tests, tags left out. Where a name states a change or a piece, a line headed by the entry shows the natural chain unless it says otherwise.
UniProt Q99623, whole entry, looked up: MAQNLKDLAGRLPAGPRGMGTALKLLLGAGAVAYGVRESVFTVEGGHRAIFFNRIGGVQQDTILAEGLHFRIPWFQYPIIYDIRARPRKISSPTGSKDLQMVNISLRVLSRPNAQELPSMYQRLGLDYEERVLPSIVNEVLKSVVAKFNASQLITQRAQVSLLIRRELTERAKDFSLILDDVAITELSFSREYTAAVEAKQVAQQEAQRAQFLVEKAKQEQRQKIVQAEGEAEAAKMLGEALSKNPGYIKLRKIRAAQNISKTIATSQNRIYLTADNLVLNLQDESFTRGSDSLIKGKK
UniProt P30613: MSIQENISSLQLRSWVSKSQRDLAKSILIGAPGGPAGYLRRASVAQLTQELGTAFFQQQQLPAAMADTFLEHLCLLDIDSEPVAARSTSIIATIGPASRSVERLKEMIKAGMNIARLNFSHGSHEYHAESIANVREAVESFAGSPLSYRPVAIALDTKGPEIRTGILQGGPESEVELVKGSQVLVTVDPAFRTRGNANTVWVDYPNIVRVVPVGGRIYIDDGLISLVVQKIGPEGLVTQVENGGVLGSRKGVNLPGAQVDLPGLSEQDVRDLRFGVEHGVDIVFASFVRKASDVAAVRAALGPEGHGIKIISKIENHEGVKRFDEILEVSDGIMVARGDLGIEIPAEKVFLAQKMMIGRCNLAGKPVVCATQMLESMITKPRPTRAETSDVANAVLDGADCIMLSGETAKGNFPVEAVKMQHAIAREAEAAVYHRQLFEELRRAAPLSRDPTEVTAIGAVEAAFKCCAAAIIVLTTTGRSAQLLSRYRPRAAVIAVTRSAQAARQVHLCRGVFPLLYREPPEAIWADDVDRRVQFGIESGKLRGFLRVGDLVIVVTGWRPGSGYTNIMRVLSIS
UniProt P0C869: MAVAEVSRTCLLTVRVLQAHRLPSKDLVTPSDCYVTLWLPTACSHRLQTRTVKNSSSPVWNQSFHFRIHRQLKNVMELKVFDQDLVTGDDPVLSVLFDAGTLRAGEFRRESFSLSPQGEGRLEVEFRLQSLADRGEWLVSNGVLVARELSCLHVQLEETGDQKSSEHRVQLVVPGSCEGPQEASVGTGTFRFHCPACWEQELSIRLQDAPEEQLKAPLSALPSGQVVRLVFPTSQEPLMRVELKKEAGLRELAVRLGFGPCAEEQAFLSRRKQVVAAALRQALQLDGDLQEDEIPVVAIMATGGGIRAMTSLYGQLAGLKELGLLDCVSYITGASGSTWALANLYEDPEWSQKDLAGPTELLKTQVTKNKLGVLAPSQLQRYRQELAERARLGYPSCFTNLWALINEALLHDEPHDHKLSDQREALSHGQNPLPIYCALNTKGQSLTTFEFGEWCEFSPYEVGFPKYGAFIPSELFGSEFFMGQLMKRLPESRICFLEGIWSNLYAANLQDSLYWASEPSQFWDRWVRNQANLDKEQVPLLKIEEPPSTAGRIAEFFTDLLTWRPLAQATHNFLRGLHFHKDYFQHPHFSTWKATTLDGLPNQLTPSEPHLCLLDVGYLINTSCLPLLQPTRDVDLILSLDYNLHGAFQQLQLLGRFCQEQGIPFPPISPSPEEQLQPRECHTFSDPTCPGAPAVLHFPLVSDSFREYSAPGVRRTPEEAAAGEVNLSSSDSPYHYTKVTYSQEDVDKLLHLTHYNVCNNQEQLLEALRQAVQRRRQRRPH
UniProt Q93100: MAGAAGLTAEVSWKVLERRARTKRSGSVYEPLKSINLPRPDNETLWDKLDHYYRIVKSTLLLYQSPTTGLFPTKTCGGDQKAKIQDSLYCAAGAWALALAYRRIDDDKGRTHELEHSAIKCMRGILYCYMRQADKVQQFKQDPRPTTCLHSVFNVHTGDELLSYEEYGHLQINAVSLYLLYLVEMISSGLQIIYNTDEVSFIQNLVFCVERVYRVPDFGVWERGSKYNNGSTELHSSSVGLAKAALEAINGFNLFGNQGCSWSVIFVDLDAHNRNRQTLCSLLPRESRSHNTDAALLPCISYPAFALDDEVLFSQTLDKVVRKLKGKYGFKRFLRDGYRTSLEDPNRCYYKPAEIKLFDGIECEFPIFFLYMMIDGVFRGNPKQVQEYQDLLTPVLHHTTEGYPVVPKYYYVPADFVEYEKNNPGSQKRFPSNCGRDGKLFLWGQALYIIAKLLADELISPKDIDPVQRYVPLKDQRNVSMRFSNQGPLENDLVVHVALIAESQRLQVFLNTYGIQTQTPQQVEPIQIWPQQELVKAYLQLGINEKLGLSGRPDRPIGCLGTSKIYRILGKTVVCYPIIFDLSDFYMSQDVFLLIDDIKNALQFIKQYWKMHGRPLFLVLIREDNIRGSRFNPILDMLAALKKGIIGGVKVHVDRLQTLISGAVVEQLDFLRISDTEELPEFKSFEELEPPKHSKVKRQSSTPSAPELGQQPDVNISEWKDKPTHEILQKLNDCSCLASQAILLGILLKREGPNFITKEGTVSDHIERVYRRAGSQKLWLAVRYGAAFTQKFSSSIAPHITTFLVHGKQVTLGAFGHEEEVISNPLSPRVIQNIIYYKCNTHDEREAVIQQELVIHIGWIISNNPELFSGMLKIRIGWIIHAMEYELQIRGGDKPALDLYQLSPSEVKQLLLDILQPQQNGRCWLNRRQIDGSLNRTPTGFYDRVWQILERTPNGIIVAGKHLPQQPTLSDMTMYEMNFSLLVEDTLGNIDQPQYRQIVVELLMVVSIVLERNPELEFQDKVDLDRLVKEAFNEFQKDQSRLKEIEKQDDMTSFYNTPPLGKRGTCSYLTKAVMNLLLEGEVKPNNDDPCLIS
UniProt Q9NXJ5: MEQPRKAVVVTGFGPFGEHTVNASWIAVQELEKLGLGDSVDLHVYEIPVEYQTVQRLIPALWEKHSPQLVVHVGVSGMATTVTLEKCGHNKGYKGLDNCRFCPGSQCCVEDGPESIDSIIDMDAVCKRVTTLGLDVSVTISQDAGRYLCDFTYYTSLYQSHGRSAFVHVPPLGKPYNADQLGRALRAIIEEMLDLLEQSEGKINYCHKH
UniProt Q8NHP8: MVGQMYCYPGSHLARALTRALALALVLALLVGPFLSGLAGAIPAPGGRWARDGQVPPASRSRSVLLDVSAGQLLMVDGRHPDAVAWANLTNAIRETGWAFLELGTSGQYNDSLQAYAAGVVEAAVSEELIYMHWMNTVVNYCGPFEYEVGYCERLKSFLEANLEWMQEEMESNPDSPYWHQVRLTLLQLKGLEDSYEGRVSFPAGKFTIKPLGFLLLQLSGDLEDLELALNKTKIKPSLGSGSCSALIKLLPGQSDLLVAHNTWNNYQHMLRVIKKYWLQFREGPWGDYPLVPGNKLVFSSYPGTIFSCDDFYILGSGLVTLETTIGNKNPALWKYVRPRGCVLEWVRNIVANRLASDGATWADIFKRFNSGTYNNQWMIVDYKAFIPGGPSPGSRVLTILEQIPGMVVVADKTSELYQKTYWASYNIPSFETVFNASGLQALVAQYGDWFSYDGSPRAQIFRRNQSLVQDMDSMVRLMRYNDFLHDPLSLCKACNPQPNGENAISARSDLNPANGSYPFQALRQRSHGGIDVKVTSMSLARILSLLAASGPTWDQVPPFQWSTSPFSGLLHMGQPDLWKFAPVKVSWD
UniProt Q8TEQ8: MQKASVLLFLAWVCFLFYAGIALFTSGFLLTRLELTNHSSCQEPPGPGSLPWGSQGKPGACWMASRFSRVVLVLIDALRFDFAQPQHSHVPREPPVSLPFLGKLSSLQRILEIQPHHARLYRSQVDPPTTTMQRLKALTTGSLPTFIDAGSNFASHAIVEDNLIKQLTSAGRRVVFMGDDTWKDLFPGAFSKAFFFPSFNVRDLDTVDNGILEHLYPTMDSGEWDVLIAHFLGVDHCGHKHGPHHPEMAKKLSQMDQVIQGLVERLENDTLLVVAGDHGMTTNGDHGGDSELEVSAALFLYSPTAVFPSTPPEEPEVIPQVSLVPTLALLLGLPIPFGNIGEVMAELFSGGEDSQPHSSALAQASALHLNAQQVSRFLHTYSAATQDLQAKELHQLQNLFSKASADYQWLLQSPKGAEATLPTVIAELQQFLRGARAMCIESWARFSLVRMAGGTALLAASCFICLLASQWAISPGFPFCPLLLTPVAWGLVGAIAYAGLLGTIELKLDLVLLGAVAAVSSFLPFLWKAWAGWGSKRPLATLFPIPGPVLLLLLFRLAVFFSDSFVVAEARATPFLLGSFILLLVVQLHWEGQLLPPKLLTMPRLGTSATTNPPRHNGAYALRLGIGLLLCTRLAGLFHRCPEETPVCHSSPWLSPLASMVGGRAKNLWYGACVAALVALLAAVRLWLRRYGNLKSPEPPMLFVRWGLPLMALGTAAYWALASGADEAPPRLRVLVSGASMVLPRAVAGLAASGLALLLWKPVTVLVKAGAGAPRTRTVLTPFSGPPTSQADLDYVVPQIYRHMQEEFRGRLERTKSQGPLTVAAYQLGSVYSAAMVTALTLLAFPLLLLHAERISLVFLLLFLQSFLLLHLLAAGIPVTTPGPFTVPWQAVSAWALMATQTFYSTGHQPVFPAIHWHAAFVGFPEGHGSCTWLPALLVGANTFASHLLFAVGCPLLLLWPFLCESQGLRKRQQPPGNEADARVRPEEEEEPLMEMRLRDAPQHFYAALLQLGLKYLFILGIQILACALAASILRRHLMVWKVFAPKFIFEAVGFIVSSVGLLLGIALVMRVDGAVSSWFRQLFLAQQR

Key:
Assay in all cases: log2 fold change, soluble protein after heating vs DMSO (PISA); higher = thermal stabilisation; K562 lysate, 10 uM; active = over 0.2 and 3.5 SD of the protein, either way, in both replicates (recomputed)
alvocidib = compound: CN1CC[C@H](c2c(O)cc(O)c3c(=O)cc(-c4ccccc4Cl)oc23)[C@H](O)C1 [alvocidib]
Outline: (§1)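 A 30 min treatment with 10 μM compound was applied to crude K562 extract at 1 mg/mL protein in PBS pH 7.4 with 1 mM MgCl2. Heating for 3 min spanned 48°C-58°C, after which aliquots were pooled, adjusted to 0.5% NP-40 at 4°C and spun at 21,000xg for 90 min. TMTpro 16plex LC-MS/MS of the supernatant, with channel sums equalised, gave values recorded as log-two fold change in thermal stability against solvent controls, from duplicates.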

Tubastatin A = compound: CN1CCc2c(c3ccccc3n2Cc2ccc(C(=O)NO)cc2)C1 [Tubastatin A]
Outline: as §1

[1] = compound: CNC(=O)C1=CC=CC=C1NC2=NC(=NC=C2Cl)NC3=C(C=C(C=C3)N4CCOCC4)OC
Outline: as §1

defactinib = compound: CNC(=O)c1ccc(Nc2ncc(C(F)(F)F)c(NCc3nccnc3N(C)S(C)(=O)=O)n2)cc1 [defactinib]
Outline: as §1

[2] = compound: CNc1nc(-c2ccc3c(N)n[nH]c3c2)cc(N2C[C@@H](C(=O)NC3CCCCC3)CC[C@H]2C)n1
Outline: as §1

encorafenib = compound: COC(=O)N[C@@H](C)CNc1nccc(-c2cn(C(C)C)nc2-c2cc(Cl)cc(NS(C)(=O)=O)c2F)n1 [encorafenib]
Outline: as §1

[3] = compound: COC(=O)[C@H](CCSC)NC(=O)C1=C(C=C(C=C1)NC[C@H](CS)N)C2=CC=CC=C2
Outline: as §1

alisertib = compound: COc1cc(Nc2ncc3c(n2)-c2ccc(Cl)cc2C(c2c(F)cccc2OC)=NC3)ccc1C(=O)O [alisertib]
Outline: as §1

[4] = compound: COc1cc2nc(-c3cc(F)ccc3O)nc(N[C@@H]3CNC[C@H]3C(C)(C)O)c2cc1OC
Outline: as §1

gefitinib = compound: COc1cc2ncnc(Nc3ccc(F)c(Cl)c3)c2cc1OCCCN1CCOCC1 [gefitinib]
Outline: as §1

lapatinib = compound: CS(=O)(=O)CCNCc1ccc(-c2ccc3ncnc(Nc4ccc(OCc5cccc(F)c5)c(Cl)c4)c3c2)o1 [lapatinib]
Outline: as §1

pictilisib = compound: CS(=O)(=O)N1CCN(Cc2cc3nc(-c4cccc5[nH]ncc45)nc(N4CCOCC4)c3s2)CC1 [pictilisib]
Outline: as §1

crizotinib = compound: C[C@@H](Oc1cc(-c2cnn(C3CCNCC3)c2)cnc1N)c1c(Cl)ccc(F)c1Cl [crizotinib]
Outline: as §1

[5] = compound: C[C@H](C1=CC=C(C=C1)C(=O)NC2=C3C=CNC3=NC=C2)N
Outline: as §1

duvelisib = compound: C[C@H](Nc1ncnc2nc[nH]c12)c1cc2cccc(Cl)c2c(=O)n1-c1ccccc1 [duvelisib]
Outline: as §1

gandotinib = compound: Cc1cc(Nc2cc(CN3CCOCC3)c3nc(C)c(Cc4ccc(Cl)cc4F)n3n2)n[nH]1 [gandotinib]
Outline: as §1

tozasertib = compound: Cc1cc(Nc2cc(N3CCN(C)CC3)nc(Sc3ccc(NC(=O)C4CC4)cc3)n2)n[nH]1 [tozasertib]
Outline: as §1

doramapimod = compound: Cc1ccc(-n2nc(C(C)(C)C)cc2NC(=O)Nc2ccc(OCCN3CCOCC3)c3ccccc23)cc1 [doramapimod]
Outline: as §1

bafetinib = compound: Cc1ccc(NC(=O)c2ccc(CN3CC[C@H](N(C)C)C3)c(C(F)(F)F)c2)cc1Nc1nccc(-c2cncnc2)n1 [bafetinib]
Outline: as §1

[6] = compound: Cc1cccc(CC(=O)N2CCc3c2ccc(-c2cn(C)c4ncnc(N)c24)c3F)n1
Outline: as §1

Measured: log2 fold change

PHB2 (UniProt Q99623)
inactive: alvocidib -0.012 | Tubastatin A 0.017 | [1] -0.02 | defactinib -0.019 | [2] -0.001 | encorafenib 0.002 | [3] -0.03 | alisertib 0.009 | [4] 0.006 | gefitinib -0.006 | lapatinib -0.03 | pictilisib -0.015 | crizotinib 0.013 | [5] -0.038 | duvelisib -0.002 | gandotinib 0.021 | tozasertib 0.003 | doramapimod -0.002 | bafetinib 0.019 | [6] 0.002

PKLR (UniProt P30613)
inactive: alvocidib -0.01 | Tubastatin A 0.019 | [1] -0.005 | defactinib -0.024 | [2] 0.085 | encorafenib 0.007 | [3] -0.101 | alisertib -0.003 | [4] 0.01 | gefitinib 0.047 | lapatinib -0.012 | pictilisib -0.004 | crizotinib 0.018 | [5] -0.012 | duvelisib 0.004 | gandotinib 0.037 | tozasertib -0.004 | doramapimod -0.029 | bafetinib 0 | [6] 0.002

PLA2G4B isoform 6 (UniProt P0C869)
inactive: alvocidib -0.035 | Tubastatin A 0.054 | [1] -0.032 | defactinib 0.024 | [2] 0.051 | encorafenib 0.09 | [3] 0.177 | alisertib -0.009 | [4] 0.073 | gefitinib 0.115 | lapatinib -0.001 | pictilisib -0.032 | crizotinib -0.49 | [5] -0.015 | duvelisib -0.038 | gandotinib 0.069 | tozasertib -0.009 | doramapimod 0 | bafetinib -0.133 | [6] 0.086

PHKB isoform 3 (UniProt Q93100)
inactive: alvocidib 0.04 | Tubastatin A -0.099 | [1] 0.223 | defactinib -0.006 | [2] -0.018 | encorafenib -0.019 | [3] 0.015 | alisertib 0.006 | [4] 0.107 | gefitinib 0.03 | lapatinib -0.042 | pictilisib 0.025 | crizotinib 0.026 | [5] -0.126 | duvelisib -0.025 | gandotinib 0.127 | tozasertib -0.021 | doramapimod -0.061 | bafetinib -0.012 | [6] 0.027

PGPEP1 (UniProt Q9NXJ5)
inactive: alvocidib 0.05 | Tubastatin A -0.182 | [1] 0.012 | defactinib -0.032 | [2] -0.055 | encorafenib 0.02 | [3] 0.057 | alisertib -0.045 | [4] 0.01 | gefitinib -0.06 | lapatinib 0.023 | pictilisib -0.013 | crizotinib 0.011 | [5] -0.025 | duvelisib 0.057 | gandotinib -0.029 | tozasertib 0.03 | doramapimod 0.045 | bafetinib -0.013 | [6] -0.019

PLBD2 (UniProt Q8NHP8)
inactive: alvocidib -0.003 | Tubastatin A 0.042 | [1] 0.008 | defactinib -0.055 | [2] 0.031 | encorafenib 0.04 | [3] -0.034 | alisertib -0.023 | [4] -0.004 | gefitinib -0.041 | lapatinib 0.035 | pictilisib -0.056 | crizotinib -0.018 | [5] -0.074 | duvelisib 0.005 | gandotinib 0.052 | tozasertib 0.097 | doramapimod 0.007 | bafetinib 0.067 | [6] -0.02

PLEC (UniProt Q15149)
inactive: alvocidib -0.007 | Tubastatin A -0.065 | [1] 0.003 | defactinib -0.026 | [2] -0.084 | encorafenib -0.003 | [3] -0.002 | alisertib 0.003 | [4] -0.007 | gefitinib 0 | lapatinib -0.003 | pictilisib -0.006 | crizotinib -0.024 | [5] -0.045 | duvelisib -0.071 | gandotinib 0.041 | tozasertib 0.047 | doramapimod 0.04 | bafetinib -0.04 | [6] 0.043

PIGO (UniProt Q8TEQ8)
inactive: alvocidib 0.038 | Tubastatin A -0.112 | [1] -0.095 | defactinib 0.046 | [2] 0.143 | encorafenib 0.019 | [3] -0.121 | alisertib 0.061 | [4] -0.073 | gefitinib 0.013 | lapatinib 0.047 | pictilisib 0.133 | crizotinib -0.02 | [5] 0.019 | duvelisib 0.076 | gandotinib -0.193 | tozasertib 0.117 | doramapimod -0.186 | bafetinib -0.026 | [6] 0.037
